Reference: PubChem BioAssay AID2685 (National Center for Advancing Translational Sciences (NCATS), 2010)
Some of the results follow. These are further read-outs of the screen, such as a control signal, another cell line or another target. No call is given for them. Most of these compounds were active or inconclusive in the main read-out, so they are no random draw. Words in brackets tell the shape of the fitted curve; partial curves, single points and poor fits give uncertain potencies.

Experiment: qHTS Assay for Lipid Storage Modulators in Drosophila S3 Cells;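 for cell number change: cells counted by Cell Tracker Red CMTPX staining in the red channel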
Settings: BODIPY lipid droplet fluorescence, 18-24 h; for cell number change: measured here: cell count max response, cells fed with added oleic acid
Outline: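 Drosophila S3 cells got compounds at several concentrations plus oleic acid (400 uM solution). Laser-scanning cytometry with 488 nm excitation read lipid droplets at 500-530 nm and cells at 575-640 nm. Percent activity was relative to 20 uM Triacsin C.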

[1] = measured here: cell number channel AC50, cells fed with added oleic acid
[2] = measured here: lipid fluorescence (Fed channel) AC50, cells fed with added oleic acid

SMILES | cell number change [%] | AC50 [1] | AC50 [2]
Cn1c(-c2ccccc2)c(/C=N/NC(=O)c2ccc(O)cc2)c2ccccc21 | 25.2 | 326 nM [rising, full curve, poor fit] | –
COc1ccc(CCNc2nc(C)nc3c2nnn3Cc2ccccc2)cc1OC | -22.5 | – | –
CCSc1nnc(NC(=O)[C@@H](NC(=O)c2cccc(C)c2)C(C)C)s1 | 15.2 | – | 7310 nM [rising, single point]
Cc1ccccc1C(=O)Nc1ccc2c(c1)OCO2 | 30.6 | 51.7 nM [rising, full curve, poor fit] | –
COc1c(OC)c2[nH]c(=O)cc3c4ccccc4n(c1=O)c23 | -20.8 | – | 259 nM [falling, full curve, poor fit]
COc1ccc(C2NC(=O)NC(C)=C2C(=O)OC2CCC(C)CC2)cc1 (stereo not given) | -44 | 10300 nM [falling, partial curve] | –
O=C(NC1CCCC1)C(c1ccccc1)N(C(=O)c1ccno1)c1cccnc1 (stereo not given) | 12.3 | – | 4.61 nM [rising, full curve, poor fit]
Cc1cnc(C(=O)OCC(=O)c2ccc(Br)s2)cn1 | -22.1 | – | –
Cc1c(C(=O)O)[nH]c2ccc([N+](=O)[O-])cc12 | -38.9 | 16.4 nM [falling, full curve, poor fit] | 2910 nM [falling, partial curve, poor fit]
Cc1nnc(SCC(=O)OC2CC(C)CCC2C(C)C)[nH]c1=O (stereo not given) | 40.1 | 23100 nM [rising, partial curve, poor fit] | –
CCc1ccc(OCc2nnc(NC(=O)c3cccs3)s2)cc1 | -17.2 | – | 2910 nM [falling, partial curve]
COc1cc(/C=N/NC(N)=O)c(Br)cc1OCC(=O)Nc1ccccc1C | 1.72 | – | 259 nM [falling, full curve, poor fit]
COc1cc(OC)c(NC(=O)c2ccccc2F)cc1Cl | 35 | 291 nM [rising, full curve, poor fit] | 259 nM [rising, full curve, poor fit]
CCOc1ccccc1N1CC(C(=O)Nc2cccc(S(=O)(=O)N3CCCCC3)c2)CC1=O (stereo not given) | -17.2 | 3260 nM [falling, single point] | 3260 nM [falling, single point]
COc1ccc2c(c1)c(C(=O)N1CCN(C)CC1)c(C)n2-c1ccccc1 | -2.51 | – | 29100 nM [falling, single point]
Cc1ccc(CN2CCCN(Cc3cc(C)ccc3C)S2(=O)=O)cc1 | 32.4 | 820 nM [rising, full curve, poor fit] | 14600 nM [rising, partial curve, poor fit]
COC(=O)CSc1nnc(-c2cccnc2)o1 | -64.2 | 32600 nM [falling, single point] | –
Cc1ccc(N(C(=O)CNC(=O)c2ccco2)C(C(=O)NC2CCCC2)c2ccncc2)c(C)c1 (stereo not given) | 5.71 | – | –
O=C(CCC(=O)NC1CCCCC1)NCc1ccc(F)cc1 | 5.25 | – | 11600 nM [rising, single point]
CC1Sc2ccc(S(=O)(=O)NCCc3ccc(S(N)(=O)=O)cc3)cc2NC1=O (stereo not given) | – | – | 580 nM [falling, full curve]

A section taken from the entries so far:
SMILES | cell number change [%] | AC50 [1] | AC50 [2]
CCSc1nnc(NC(=O)[C@@H](NC(=O)c2cccc(C)c2)C(C)C)s1 | 15.2 | – | 7310 nM [rising, single point]
Cc1ccccc1C(=O)Nc1ccc2c(c1)OCO2 | 30.6 | 51.7 nM [rising, full curve, poor fit] | –
COc1c(OC)c2[nH]c(=O)cc3c4ccccc4n(c1=O)c23 | -20.8 | – | 259 nM [falling, full curve, poor fit]
COc1ccc(C2NC(=O)NC(C)=C2C(=O)OC2CCC(C)CC2)cc1 (stereo not given) | -44 | 10300 nM [falling, partial curve] | –
O=C(NC1CCCC1)C(c1ccccc1)N(C(=O)c1ccno1)c1cccnc1 (stereo not given) | 12.3 | – | 4.61 nM [rising, full curve, poor fit]
Cc1cnc(C(=O)OCC(=O)c2ccc(Br)s2)cn1 | -22.1 | – | –
Cc1c(C(=O)O)[nH]c2ccc([N+](=O)[O-])cc12 | -38.9 | 16.4 nM [falling, full curve, poor fit] | 2910 nM [falling, partial curve, poor fit]
Cc1nnc(SCC(=O)OC2CC(C)CCC2C(C)C)[nH]c1=O (stereo not given) | 40.1 | 23100 nM [rising, partial curve, poor fit] | –
CCc1ccc(OCc2nnc(NC(=O)c3cccs3)s2)cc1 | -17.2 | – | 2910 nM [falling, partial curve]
COc1cc(/C=N/NC(N)=O)c(Br)cc1OCC(=O)Nc1ccccc1C | 1.72 | – | 259 nM [falling, full curve, poor fit]
COc1cc(OC)c(NC(=O)c2ccccc2F)cc1Cl | 35 | 291 nM [rising, full curve, poor fit] | 259 nM [rising, full curve, poor fit]
CCOc1ccccc1N1CC(C(=O)Nc2cccc(S(=O)(=O)N3CCCCC3)c2)CC1=O (stereo not given) | -17.2 | 3260 nM [falling, single point] | 3260 nM [falling, single point]
COc1ccc2c(c1)c(C(=O)N1CCN(C)CC1)c(C)n2-c1ccccc1 | -2.51 | – | 29100 nM [falling, single point]
Cc1ccc(CN2CCCN(Cc3cc(C)ccc3C)S2(=O)=O)cc1 | 32.4 | 820 nM [rising, full curve, poor fit] | 14600 nM [rising, partial curve, poor fit]
COC(=O)CSc1nnc(-c2cccnc2)o1 | -64.2 | 32600 nM [falling, single point] | –

(more compounds)

SMILES | cell number change [%] | AC50 [1] | AC50 [2]
CC(C)CCCN1CCN=C1N(C)C | 29.6 | – | 6510 nM [rising, single point]
COCCNC(=O)C(=O)NCC1OCCCN1S(=O)(=O)c1cccs1 (stereo not given) | -1.33 | – | 2310 nM [falling, full curve, poor fit]
Cc1cc(C(=O)NNC(=O)c2cccs2)c(C)o1 | 13.2 | – | 184 nM [falling, full curve, poor fit]
O=C(CSc1nnc2scc(-c3ccccc3)n12)NCc1ccc2c(c1)OCO2 | 0.742 | – | 2310 nM [rising, partial curve]
CC(=O)c1ccc(NC(=O)CCC(=O)OCC(=O)c2cccc([N+](=O)[O-])c2)cc1 | 15.5 | – | –
CC(C)CN1CCC(=O)N(CCO)CC1 | 0.599 | – | –
CCOc1cccc(C(=O)Nc2ccc(N3CCN(S(C)(=O)=O)CC3)cc2)c1 | 4.16 | 6510 nM [rising, single point] | 6510 nM [rising, single point]
CCc1ccccc1Nc1nc(N)nc(CSCC(=O)Nc2ccc(C)c(C)c2)n1 | 2.8 | – | 4610 nM [rising, single point]
CC(C)[C@H](NC(=O)OCc1ccccc1)C(=O)OCC(=O)N1CCN(c2ccccc2)CC1 | -11.8 | – | 3260 nM [rising, single point]
O=c1c2ccc(Cl)cc2[nH]c(=S)n1CCCN1CCOCC1 | 23 | – | 461 nM [rising, single point]
COC(=O)C1C(=O)C=C(N2CCOCC2)CC1(C)C (stereo not given) | -0.195 | – | 461 nM [falling, single point]
COc1ccc(-c2oc3ccc(-c4cc(OC)c(OC)c(OC)c4)cc3c2C(=O)c2ccc(OC)nc2)cc1 | 16.5 | – | 29100 nM [rising, single point]
CC(C)N=C(NS(=O)(=O)c1cccs1)c1ccccc1 | 3.14 | – | 3660 nM [rising, partial curve]
CC(C)c1ccc(S(=O)(=O)Nc2ccc(-n3cnnn3)cc2)cc1 | -30.6 | 2590 nM [falling, full curve] | –
COc1ccccc1NC(=O)COC(=O)c1cc(C)nc2ccccc12 | 23.9 | 5.8 nM [rising, full curve, poor fit] | 5.8 nM [rising, full curve, poor fit]
O=C(COC(=O)/C=C/c1nc2ccccc2s1)Nc1cccc(Cl)c1Cl | -3.6 | 259 nM [falling, full curve, poor fit] | –
CCOC(=O)N1CCN(C(=O)CN(C2CCCCC2)S(=O)(=O)c2ccc(C)cc2)CC1 | – | – | 130 nM [falling, full curve, poor fit]
CCCc1cc(=O)[nH]c(Nc2ccc(O)cc2)n1 | 4.5 | – | 10300 nM [falling, partial curve]
COc1ccccc1/C=N/N1C(=O)c2cccc3cccc(c23)C1=O | 13 | – | –
O=c1[nH]c(C2CCN(S(=O)(=O)c3ccccc3)CC2)nc2c1nnn2Cc1ccc2c(c1)OCCO2 | -23.4 | 2310 nM [falling, partial curve] | –

SMILES | cell number change [%] | AC50 [1] | AC50 [2]
O=C(COC(=O)C12CC3CC(CC(O)(C3)C1)C2)Nc1ccc(Cl)cc1F | 6.04 | – | –
Clc1ccc2nncn2n1 | -32.3 | 103 nM [falling, full curve, poor fit] | 116 nM [falling, full curve, poor fit]
CCOC(=O)CNC(=O)c1cn(CC)c(=O)c2cc(OC)c(OC)cc12 | 25.7 | – | –
O=C(COc1ccc(S(=O)(=O)N2CCOCC2)cc1)Nc1ccccc1Cl | – | – | 29100 nM [falling, single point]
COc1cccc(Cn2cccc(NC(=O)Nc3ccc(C#N)cc3)c2=O)c1 | 2.84 | 820 nM [falling, single point] | –
Cc1cccc(NC(=O)CCCN2C(=O)C(c3ccccc3)Oc3cccnc32)c1C (stereo not given) | 14.6 | 6510 nM [rising, single point] | 6510 nM [rising, single point]
COC(=O)C1=C(NC(=O)c2ccccc2C)CCS1 | 24.8 | – | 6510 nM [rising, single point]
Cc1ccc(NC(=S)NC(NC(=O)Cc2cccc3ccccc23)C(Cl)(Cl)Cl)cc1 (stereo not given) | – | 820 nM [rising, full curve] | 14600 nM [falling, partial curve]
O=C(OCc1ccccc1)/C(=C/c1ccc(Cl)cc1)NC(=O)c1ccccc1Cl | -32.9 | – | –
Cc1cccn2c(=O)c3cc(S(=O)(=O)c4ccccc4)c(=N)n(Cc4cccnc4)c3nc12 | -21.8 | – | 65.1 nM [rising, partial curve, poor fit]
O=C(NCc1ccc2c(c1)OCO2)c1cc2c(s1)CS(=O)(=O)C2 | -4.56 | – | 3260 nM [rising, full curve, poor fit]
COC(=O)c1ccc(CNC(=O)CSc2nnc(COc3ccccc3)n2C)o1 | -14.5 | – | 7310 nM [falling, partial curve, poor fit]
CCN1C(=O)[C@H]2[C@@H](c3ccc(C)cc3)N3C(=O)N(c4ccc(OC)cc4)C(=O)[C@@]3(Cc3ccc(Cl)cc3)[C@H]2C1=O | -3.24 | – | 130 nM [falling, full curve, poor fit]
Cc1onc(-c2c(Cl)cccc2Cl)c1C(=O)c1c[nH]c(C(=O)NCC2CCCO2)c1 (stereo not given) | 71.8 | 14600 nM [rising, single point] | –
O=C(CSc1cn(Cc2ccccc2)c2ccccc12)NCc1ccc(F)cc1 | -3.43 | – | 4110 nM [falling, full curve]
COc1cccc(CNC(=O)c2c(C)nn(-c3ccccc3)c2C)c1 | 8.4 | – | –
O=c1cnc(-c2ccc(Cl)cc2)cn1O | -10 | – | 411 nM [falling, full curve, poor fit]
COc1ccc(NC(=O)C2CCC(=O)N2)cc1 (stereo not given) | -2.93 | – | 731 nM [falling, full curve]
CCOC(=O)C1=C(C)Nc2nc(SCc3cccnc3)nn2C1c1ccc(OC)cc1 (stereo not given) | 14.6 | – | 146 nM [rising, full curve, poor fit]
CS(=O)(=O)Nc1ccccc1C(=O)N1CCN(c2ccccc2)CC1 | 82.1 | 16400 nM [rising, single point] | –
